Holding throughout (experiment): DAPPL (digital affinity profiling via proximity ligation, sequencing)
Holding throughout (conditions): 10 mM Tris-HCl pH 7.5, 50 mM NaCl, 1 mM DTT, 4% glycerol, room temperature, 30 min; GST-TFs on glutathione beads, 16-mer random dsDNA library, 0.1% …; high values mean tight binding; double strand, one strand shown; scale: fold enrichment (6-mer frequency, TF over GST control)

Protein sequences, listed by entry. Tags and fused reporters are not part of them. Lines headed by an entry give the natural chain unless they say otherwise; changes in a name come on top.
UniProt O43186: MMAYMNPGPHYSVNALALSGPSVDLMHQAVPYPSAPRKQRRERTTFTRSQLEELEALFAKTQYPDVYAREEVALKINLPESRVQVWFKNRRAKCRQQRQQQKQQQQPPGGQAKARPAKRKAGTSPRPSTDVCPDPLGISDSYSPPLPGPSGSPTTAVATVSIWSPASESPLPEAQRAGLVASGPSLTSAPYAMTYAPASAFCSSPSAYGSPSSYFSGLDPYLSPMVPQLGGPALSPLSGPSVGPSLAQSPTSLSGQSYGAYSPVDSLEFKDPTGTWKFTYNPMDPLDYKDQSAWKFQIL

The target of one assay is T1, FEV (UniProt Q99581).
T1 sequence: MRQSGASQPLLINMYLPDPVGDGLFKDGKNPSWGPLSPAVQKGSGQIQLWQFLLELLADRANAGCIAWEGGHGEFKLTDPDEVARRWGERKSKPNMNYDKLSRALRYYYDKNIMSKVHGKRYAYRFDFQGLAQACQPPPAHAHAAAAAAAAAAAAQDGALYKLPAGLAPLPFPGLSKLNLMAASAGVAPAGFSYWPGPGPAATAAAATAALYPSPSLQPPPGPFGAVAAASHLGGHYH

The target of a further assay is CRX (UniProt O43186).
A further assay concerns the target T2, ELF5 (UniProt Q9UKW6-2).
T2 sequence: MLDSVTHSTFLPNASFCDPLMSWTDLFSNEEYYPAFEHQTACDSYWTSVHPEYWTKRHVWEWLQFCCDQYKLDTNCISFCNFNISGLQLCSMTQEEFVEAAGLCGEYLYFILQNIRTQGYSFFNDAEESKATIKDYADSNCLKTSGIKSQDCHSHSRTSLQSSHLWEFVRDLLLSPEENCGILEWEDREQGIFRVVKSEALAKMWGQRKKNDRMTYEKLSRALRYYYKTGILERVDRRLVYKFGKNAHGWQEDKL

Only a part is listed here, and it is no random draw. At the low end of the ranking, values are background and their order means little.

GCGGTA: the binding signal with FEV was 0.735; with CRX, 0.635; with ELF5 it was 0.742.
Taken in the same sequence, the figures for AGGAGC were 0.382, 0.326 and 0.372.
On the same counts, the results for CGTGAC are 0.579, 0.402 and 0.543.
For the sequence GCGGGA, the binding signal with FEV stood at 0.367; with CRX, 0.322; with ELF5, 0.371.
On the same counts, the results for GAGCCT are 0.879, 0.915 and 0.764.
Taken in the same sequence, the figures for GCCATA were 0.834, 0.925 and 0.893.
Taken in the same sequence, the figures for GATAGA were 0.769, 0.809 and 0.796.
Turning to GAGCAT, the binding signal turned out to be 0.764 with FEV, 0.743 with CRX and 0.69 in the assay with ELF5.
Taken in the same sequence, the figures for GCAGCG were 0.8, 0.589 and 0.766.
On the same counts, the results for GCCAGC are 0.788, 0.637 and 0.654.
Taken in the same sequence, the figures for GCAGAG were 0.658, 0.561 and 0.623.
With AGACAA, the binding signal came out at 0.811 in the assay with FEV, 0.774 with CRX and 0.758 in the assay with ELF5.
In the case of GTCGGA, the binding signal with FEV amounted to 0.17; with CRX, 0.148; in the assay with ELF5 it was 0.181.
In the case of GATGAG, the binding signal with FEV was 0.815; with CRX, 0.821; in the assay with ELF5 it was 0.834.
For the sequence AGTCGT, the values for the binding signal with FEV, with CRX and with ELF5 were 0.386, 0.318 and 0.402, respectively.
Taken in the same sequence, the figures for AACCGT were 0.518, 0.48 and 0.481.
With GAGATA, the binding signal with FEV is 0.601; with CRX it was 0.793; in the assay with ELF5, 0.615.
For GGTGCC, the binding signal with FEV turned out to be 0.717; with CRX, 0.489; with ELF5, 0.675.
Taken in the same sequence, the figures for GCCCGT were 0.619, 0.488 and 0.597.
Taken in the same sequence, the figures for GTAGGA were 0.574, 0.484 and 0.647.
Taken in the same sequence, the figures for ATCCAG were 0.838, 1.29 and 0.88.
Turning to CCAGGT, the values for the binding signal in the assay with FEV, with CRX and with ELF5 were 0.708, 0.587 and 0.722, respectively.
On the same counts, the results for ACGTGT are 0.656, 0.475 and 0.635.
On the same counts, the results for TAGGAC are 0.851, 0.907 and 0.833.
On the same counts, the results for GGGTCG are 0.54, 0.363 and 0.573.
Turning to GCCAAG, the binding signal in the assay with FEV is 0.84; with CRX, 0.756; with ELF5 it was 0.808.
As for GGTAGA, the figures for the binding signal with FEV, in the assay with CRX and with ELF5 were 0.648, 0.58 and 0.659, respectively.
With TGAGGC, the binding signal worked out at 0.448 with FEV, 0.429 in the assay with CRX and 0.415 in the assay with ELF5.
In the case of CCGTGA, the binding signal with FEV stood at 0.185; with CRX, 0.165; with ELF5 it was 0.197.
Taken in the same sequence, the figures for GTGAGA were 0.315, 0.264 and 0.296.
On the same counts, the results for CCGAGG are 0.728, 0.601 and 0.662.
Regarding AGGTAG, the binding signal in the assay with FEV was 0.66; with CRX, 0.544; in the assay with ELF5 it was 0.676.
With GGAACC, the binding signal with FEV is 0.836; in the assay with CRX it was 0.456; in the assay with ELF5 it was 0.849.
For the sequence GGGGTT, the binding signal worked out at 0.842 in the assay with FEV, 0.795 in the assay with CRX and 0.823 with ELF5.
On the same counts, the results for GTGTCA are 0.766, 0.574 and 0.759.
Taken in the same sequence, the figures for CGGTGT were 0.768, 0.466 and 0.677.
On the same counts, the results for AGAGCC are 0.731, 0.641 and 0.701.
Regarding GGGTGG, the binding signal with FEV is 0.712; in the assay with CRX it was 0.586; with ELF5, 0.779.
Taken in the same sequence, the figures for GAACAG were 0.864, 0.745 and 0.986.
Taken in the same sequence, the figures for GCCGGT were 0.679, 0.498 and 0.583.
For GGTTGC, the results for the binding signal with FEV, with CRX and with ELF5 were 0.903, 0.546 and 0.869, respectively.
On the same counts, the results for GTGAAC are 0.859, 0.565 and 0.828.
For the sequence GGACAA, the binding signal with FEV turned out to be 0.796; with CRX, 0.616; with ELF5 it was 0.844.
On the same counts, the results for CGCATA are 0.732, 0.693 and 0.732.
Taken in the same sequence, the figures for ACCGGG were 0.487, 0.381 and 0.538.
For GACGCC, the figures for the binding signal with FEV, with CRX and in the assay with ELF5 were 0.889, 0.591 and 0.812, respectively.
As to GGTTGA, the binding signal with FEV is 0.709; in the assay with CRX, 0.61; in the assay with ELF5, 0.734.
Taken in the same sequence, the figures for GCAGTC were 0.435, 0.338 and 0.452.
Take AGCCAT: the binding signal in the assay with FEV came to 0.875; in the assay with CRX it was 0.939; with ELF5, 0.797.
Taken in the same sequence, the figures for GTCCAG were 0.597, 0.534 and 0.651.
Take GCGCGG: the results for the binding signal with FEV, in the assay with CRX and with ELF5 were 0.831, 0.638 and 0.766, respectively.
For GAGCGC, the binding signal stood at 0.608 with FEV, 0.459 with CRX and 0.523 with ELF5.
On the same counts, the results for AGTCAC are 0.741, 0.557 and 0.803.
Regarding AGAGCG, the binding signal turned out to be 0.457 with FEV, 0.392 with CRX and 0.427 in the assay with ELF5.
Taken in the same sequence, the figures for GCGCCA were 0.814, 0.575 and 0.734.
Taken in the same sequence, the figures for GTCCGA were 0.872, 0.668 and 0.892.
In the case of CATGTG, the results for the binding signal with FEV, with CRX and with ELF5 were 0.777, 0.672 and 0.737, respectively.
Taken in the same sequence, the figures for GGCCGG were 0.808, 0.344 and 0.523.
Taken in the same sequence, the figures for GGCAGA were 0.643, 0.558 and 0.625.
Taken in the same sequence, the figures for CGTGTG were 0.415, 0.327 and 0.424.
Turning to TGAGTA, the binding signal with FEV is 0.416; with CRX it was 0.461; with ELF5, 0.394.
On the same counts, the results for AGTAAG are 0.778, 0.916 and 0.84.
On the same counts, the results for CCACGG are 0.805, 0.7 and 0.925.
On the same counts, the results for GGCGAA are 0.712, 0.565 and 0.678.
With AGTTGT, the results for the binding signal with FEV, with CRX and in the assay with ELF5 were 0.756, 0.667 and 0.892, respectively.
On the same counts, the results for GATCCG are 0.955, 0.956 and 1.02.
On the same counts, the results for GGGAAC are 0.635, 0.496 and 0.743.
Take GGATCG: the binding signal turned out to be 0.599 with FEV, 0.629 with CRX and 0.552 with ELF5.
Taken in the same sequence, the figures for ACGAGA were 0.635, 0.736 and 0.645.
Taken in the same sequence, the figures for TGAGTG were 0.425, 0.4 and 0.409.
As to GGCTGA, the binding signal amounted to 0.758 with FEV, 0.754 with CRX and 0.678 with ELF5.
Taken in the same sequence, the figures for CCAAGG were 0.849, 0.792 and 0.889.
Taken in the same sequence, the figures for ACAGGG were 0.777, 0.635 and 0.838.
On the same counts, the results for CAGGAC are 0.784, 0.536 and 0.819.
In the case of GAGAAC, the results for the binding signal with FEV, with CRX and with ELF5 were 0.39, 0.411 and 0.377, respectively.
GGGAGA: the binding signal with FEV was 0.327; with CRX, 0.287; with ELF5, 0.31.
On the same counts, the results for GGCTGG are 0.729, 0.626 and 0.752.
On the same counts, the results for GTCAGC are 0.731, 0.567 and 0.658.
On the same counts, the results for TAGACG are 0.767, 0.841 and 0.724.
Turning to TGAGCC, the binding signal in the assay with FEV amounted to 0.855; in the assay with CRX, 0.976; with ELF5 it was 0.775.
On the same counts, the results for GGGTGT are 0.671, 0.523 and 0.751.
Taken in the same sequence, the figures for AGGAGG were 0.227, 0.192 and 0.248.
On the same counts, the results for GTGGCG are 0.848, 0.546 and 0.827.
Consider GAAGGC, for which the binding signal with FEV came to 0.84; with CRX, 0.701; with ELF5, 0.908.

These data come from paper PMC7862700.
